# PubChem BioAssay AID652272, Drosophila RNAi Screening Center | 2013
# Aim: 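Genome-wide knock-down search for components of Hedgehog signalling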 (primary screen)
# Cell system: Drosophila clone 8 (Cl8) cells
# Reagent: long dsRNA against Drosophila genes
# Measurement: 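Plate reader light from a firefly reporter under a ptc promoter fragment that responds to Hedgehog, with Renilla light as transfection reference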
# Scale: firefly Hh reporter signal: higher = more ptc reporter light; Renilla reference signal: higher = more Renilla control light
# Rule for the call: 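Hit when the z-score averaged over two replicates is under -2 or over +3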
# Meaning of the calls: active = hit: reporter lowered or raised; inactive = not a hit
# The screen tested about 21,000 reagents; shown is an unselected part of those with a known target gene and a result. Of all reagents, 503 (2.4%) got an active call. 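Raw plate light values, not normalised; calls rest on replicate z-scores that were not deposited; hits include reporter decreases as well as increases.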 A number with no mark means an inactive call. Names joined by + are all predicted targets of the reagent. Reagent sequences are not shown. Not stated in the record: the amount of reagent, the time to read-out.
target gene,DRSC id,"firefly Hh reporter signal, replicate 1","firefly Hh reporter signal, replicate 2","firefly Hh reporter signal, replicate 3","Renilla reference signal, replicate 1","Renilla reference signal, replicate 2"
mtrm,DRSC10322,72316,29158,,3603,1228
stumps,DRSC13045,46872,1.79e5,,9881,3794
stumps,DRSC15332,55767,56256,,1629,1744
stumps,DRSC17073,90368,1.16e5,,4391,4152
CSN1a,DRSC01951,73329,62854,,2067,6555
Lamtor5,DRSC18491,78048,2.60e5,,2112,10891
CG8321,DRSC07148,52090,61649,,2839,2374
CG9483,DRSC03226,54364,90466,,2741,3185
CG11878,DRSC14422,4.39e5,84677,,24724,2608
Prp16,DRSC19538,57744,79217,,1576,2134
Prp16,DRSC19542,41392,1.51e5,,1645,7672
Dnz1,DRSC03317,76733,59440,,2978,2257
CG2533,DRSC19855,1.26e5,3.85e5,,3046,15635
Lip4,DRSC02930,83168,59304,,2225,5400
ZAP3,DRSC17852,72716,90848,,1689,1892
ZAP3,DRSC17853,87589,2.33e5,,2261,9216
ZAP3,DRSC18249,68790,1.93e5,,1833,6816
E(spl)m2-BFM,DRSC16991,2.82e5,42576,,18520,1568
CG31777,DRSC00201,5.86e5,3.34e5,,29700,13328
Naa20A,DRSC19579,1.05e5,1.21e5,,2267,2472
CG10657,DRSC09768,92786,4.72e5,65168,4115,27408
mio,DRSC00692,1.39e5,78917,,5072,2912
ppk,DRSC03595,1.04e5,47843,,2900,4784
asRNA:CR43430 + hts,DRSC07629,77541,53793,,2294,4153
IM33,DRSC00476,1.48e5,57529,,3472,5862
Syx17,DRSC08591,1.92e5,1.01e5,,7440,4204
CG12061,DRSC20715,84374,2.19e5,,3126,8538
Abca3,DRSC20546,1.15e5,2.87e5,,3338,11165
LanB2,DRSC11208,1.06e5,59648,,4732,2625
CG34155,DRSC13991,5.20e5,1.95e5,,26468,3773
CG3860,DRSC04425,97868,77348,,3767,2811
CG7737,DRSC07033,84434,75321,,3245,2588
Lsm10,DRSC06250,73393,48960,,1600,3622
CG15741,DRSC19707,74241,1.75e5,,2403,7564
CG11007,DRSC06023,92699,54512,,4164,2587
CG8924,DRSC20122,65933,70905,,1648,1899
CG31798,DRSC01702,1.59e5,2.42e5,,4768,12088
CG32437,DRSC11760,1.69e5,1.45e5,,5873,4144
CG12224,DRSC14480,1.16e5,88693,,4616,1778

In a second layout: results already given
CG11878 [DRSC14422] — firefly Hh reporter signal, replicate 1 = 4.39e5; firefly Hh reporter signal, replicate 2 = 84677; Renilla reference signal, replicate 1 = 24724; Renilla reference signal, replicate 2 = 2608
Prp16 [DRSC19538] — firefly Hh reporter signal, replicate 1 = 57744; firefly Hh reporter signal, replicate 2 = 79217; Renilla reference signal, replicate 1 = 1576; Renilla reference signal, replicate 2 = 2134
Prp16 [DRSC19542] — firefly Hh reporter signal, replicate 1 = 41392; firefly Hh reporter signal, replicate 2 = 1.51e5; Renilla reference signal, replicate 1 = 1645; Renilla reference signal, replicate 2 = 7672
